Data set [1] relates to Smc5/6 hexamer (lacking Nse5/6) (Saccharomyces cerevisiae (W303)). Kind of data set: mass photometry. To be noted: Mass photometry: 40 mM Tris-HCl pH 7.5, 100 mM K-glutamate, 7.5 mM MgCl2, 30 C, 10 nM protein, 5 nM DNA, single-molecule: 2 nM Smc5/6, recombinant protein.
For data set [2], the system named is Smc5/6 hexamer EQ mutant E1015Q,E1048Q (Saccharomyces cerevisiae (W303)). Kind of data set: mass photometry. To be noted: 2.5 mM ATP, DNA-enhanced dimer fraction, indirect; Mass photometry: 40 mM Tris-HCl pH 7.5, 100 mM K-glutamate, 7.5 mM MgCl2, 30 C, 10 nM protein, 5 nM DNA; single-molecule: 2 nM Smc5/6; recombinant protein; protein details: TAP purification.

This passage reports binding signal (% dimer fraction) results from paper PMC10132971.

For at least one entry, the source does not settle the construct or the ends of the probe. Whether high values mean tight binding is not given here for every scale.

As for “TGGTTTTTATATGTTTTGTTATGTATTGTTTATTTTCCCTTTAATTTTAGGATATGAAAACAAGAATTTATCTGGTTTTTATATGTTTTGTTATGTATTGTTTATTTTCCCTTTAATTTTAGGATATGAAAACAAGAATTTATCTGGTTTTTATATGTTTTGTTATGTATTGTTTATTTTCCCTTTAATTTTAGGATATG (double strand) [200 bp linear dsDNA]”, the binding signal (% dimer fraction) in data set [1] (2.5 mM ATP, dimer fraction similar to DNA-unbound state, indirect) was determined as 2; in data set [1] (no ATP, DNA-enhanced dimerization (over tenfold), indirect read-out of DNA binding) it was 40; in data set [2] it was 43.
